Among the data in publication PMC9378687 are binding values, retold here.

Chains of the proteins cited; added tags and fusions are not shown.
UniProt P19484: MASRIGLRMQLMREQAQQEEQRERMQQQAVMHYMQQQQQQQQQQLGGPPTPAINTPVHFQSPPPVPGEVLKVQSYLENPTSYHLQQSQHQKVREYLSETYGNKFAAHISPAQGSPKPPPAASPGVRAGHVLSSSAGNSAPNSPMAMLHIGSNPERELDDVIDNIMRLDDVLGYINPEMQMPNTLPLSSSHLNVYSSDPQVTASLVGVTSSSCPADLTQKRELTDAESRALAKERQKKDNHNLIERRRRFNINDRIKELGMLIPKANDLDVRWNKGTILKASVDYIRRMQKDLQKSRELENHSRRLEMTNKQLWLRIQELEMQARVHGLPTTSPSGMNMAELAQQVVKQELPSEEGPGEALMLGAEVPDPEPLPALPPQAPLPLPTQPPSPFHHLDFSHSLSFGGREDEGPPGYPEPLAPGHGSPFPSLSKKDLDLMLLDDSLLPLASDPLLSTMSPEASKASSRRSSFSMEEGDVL

In the assay the target is transcription factor EB (TFEB) (human (endogenous in MGC803)) (UniProt P19484). The assay can be described thus: co-IP; whole-cell lysates of MGC803 cells (control, or overexpressing native or mutant HPA); Universal Magnetic Co-IP Kit, IP with anti-TFEB monoclonal antibody and protein-G beads; western blot for TFEB, phospho-TFEB (Ser211), HPA, 14-3-3.

Numbering of substitutions follows the chain as printed. Results are given in words; binding and its absence hold for the method and conditions named. In cells and extracts the contact can be indirect. Some results given as binding are weak or reduced against the parent protein; the word gives no strength.

B1: heparanase (HPA), wild type (enzyme, UniProt Q9Y251 36-543)
chain: QDVVDLDFFTQEPLHLVSPSFLSVTIDANLATDPRFLILLGSPKLRTLARGLSPAYLRFGGTKTDFLIFDPKKESTFEERSYWQSQVNQDICKYGSIPPDVEEKLRLEWPYQEQLLLREHYQKKFKNSTYSRSSVDVLYTFANCSGLDLIFGLNALLRTADLQWNSSNAQLLLDYCSSKGYNISWELGNEPNSFLKKADIFINGSQLGEDFIQLHKLLRKSTFKNAKLYGPDVGQPRRKTAKMLKSFLKAGGEVIDSVTWHHYYLNGRTATKEDFLNPDVLDIFISSVQKVFQVVESTRPGKKVWLGETSSAYGGGAPLLSDTFAAGFMWLDKLGLSARMGIEVVMRQVFFGAGNYHLVDENFDPLPDYWLSLLFKKLVGTKVLMASVQGSKRRKLRVYLHCTNTDNPRYKEGDLTLYAINLHNVTKYLRLPYPFSNKQVDKYLLRPLGPHGLLSKSVQLNGLTLKMVDDQTLPPLMEKPLRPGSSLGLPAFSYSFFVIRNAKVAACI
Take B1: the binding result is reported as “binds”.

B2: heparanase (HPA) E225/343A double mutant (enzyme, UniProt Q9Y251 36-543)
chain: B1 chain with E190A, E308A
For the molecule B2, the binding entry is given as “binds”.
